Experimental data as given in article PMC10511709.

The chains behind the UniProt entries cited, without tags or fusion partners.
UniProt Q9LS94: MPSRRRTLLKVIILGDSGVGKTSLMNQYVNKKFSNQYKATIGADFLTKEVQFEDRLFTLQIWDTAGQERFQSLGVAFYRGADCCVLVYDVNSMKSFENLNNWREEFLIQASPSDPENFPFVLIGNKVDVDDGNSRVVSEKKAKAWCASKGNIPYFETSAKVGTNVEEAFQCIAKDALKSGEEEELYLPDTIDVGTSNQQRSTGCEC

Legend:
Assay in all cases: affinity purification with mass spectrometry; Arabidopsis root microsomes of YFP-Rab lines; extraction with 100 uM GTP-gamma-S; cross-linked with 1 mM DTSSP; solubilised in 2% CHAPS; anti-GFP uMACS magnetic microbeads; LC-MS/MS, three replicates per genotype
[1] = target: YFP-RABG3f (Arabidopsis thaliana) (UniProt Q9LS94)
[2] = target: T1, YFP-RABA5c (Arabidopsis thaliana) (UniProt P28187)
T1 sequence: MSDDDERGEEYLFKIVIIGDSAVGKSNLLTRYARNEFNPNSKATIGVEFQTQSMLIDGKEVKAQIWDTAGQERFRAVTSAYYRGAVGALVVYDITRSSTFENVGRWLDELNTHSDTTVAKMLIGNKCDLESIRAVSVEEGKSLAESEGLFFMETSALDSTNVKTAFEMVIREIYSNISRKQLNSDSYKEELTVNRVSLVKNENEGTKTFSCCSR

[3] = target: T2, YFP-RABA2a (Arabidopsis thaliana) (UniProt O04486)
T2 sequence: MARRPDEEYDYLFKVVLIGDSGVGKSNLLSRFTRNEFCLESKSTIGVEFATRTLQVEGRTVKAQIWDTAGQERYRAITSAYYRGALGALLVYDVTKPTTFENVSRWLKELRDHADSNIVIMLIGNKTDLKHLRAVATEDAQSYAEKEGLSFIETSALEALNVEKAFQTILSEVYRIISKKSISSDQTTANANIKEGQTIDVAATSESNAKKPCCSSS

B1: NET4B, endogenous in Arabidopsis roots (protein, UniProt Q84VY2 1-517)
chain: MASSTAQSKKQFKRSMTKKSHSWWWDSHNCPKNSKWLAENLEKMDDRVNHMLKLIEEDADSFAKKAQMYFQKRPELIQLVEEFYRMYRALAERYDQASGELQKNHTSEIQSQSSLEISSPTKEKLSRRQSSHKEEEDSSSLTDSGSDSDHSSANDEDGDEALIRRMAELELELQETKQKLLLQQESVDGDNNVDLLHKITTYEGELKEANEKMRMHEDEIANLKNQLQSFMSFDTEDHLGAEQKSVDLDKEDTKEDAVATKVLALEEELSIAKEKLQHFEKETYSLKNELEIGKAAEEKLKSLQHELELAQRDADTYINKLNAEKKEVLKLQERLAMVKTSLQDRDNEIRALKTAVSDAEQKIFPEKAQIKGEMSKMLEERSQLGEQLRELESHIRLIKEEKAETEEKLRGGTEKISGMRDESNVLREEIGKREEKIKETEKHMEELHMEQVRLRRRSSELTEEVERTRVSASEMAEQKREAIRQLCMSLDHYRDGYDRLWRVVAGHKSKRVVVLST
binding [1]: binds | binding [2]: no binding | binding [3]: no binding

Results are given in words; binding and its absence hold for the method and conditions named. Binding seen in cells or lysates may run through a third protein. A yes stands for co-enrichment or nearness to the bait. Other partners may have been found. For part of these data: No binding means not detected with the bait. For part of these data: Tags and fused reporters may be left off the sequences shown.
